Results deposited as PubChem BioAssay AID743121 (NCATS, 2013).

Aim: 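Genes whose silencing strengthens cell killing by camptothecin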 (primary screen)
Cell system: MDA-MB-231 cells, a human breast cancer line
Knock-down reagent: single siRNA against human genes, 20 nM siRNA (0.8 pmol per well)
Timing: 120 h (drug added 48 h after transfection, read 72 h later)
Treatment: camptothecin 20 nM (about EC30) for 72 h; vehicle 0.1% DMSO in parallel plates
Read-out: 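CellTiter-Glo ATP signal, scaled to control siRNA as percent viability; sensitisation given as log2 of untreated divided by camptothecin-treated viability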
Scale: log2 vehicle/camptothecin viability: higher = stronger sensitisation to camptothecin
Hit rule: 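Active genes have an RSA gene-level p-value below 0.001, computed from the ratios of their separate siRNAs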
The deposit covers about 26,000 reagents; below is an unselected part. Over the whole deposit, 167 (0.63%) are marked active. 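Calls are per gene from RSA p-values that are not deposited; an individual active-marked siRNA can sensitise only weakly.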 A number with no mark means an inactive call. The numbers tell different reagents against one gene apart. Further read-outs or replicates are left out here.

The first 7 entries, to show the layout:
no.	gene	reagent no.	log2 vehicle/camptothecin viability
1	CDK3	1	0.373
2	CDK3	2	-0.226
3	CDK3	3	0.818
4	CDK3	4	0.0754
5	CPM	1	0.0864
6	CPM	2	-0.061
7	CPM	3	-0.36

Results, repeating the preview:
no.	gene	reagent no.	log2 vehicle/camptothecin viability
1	CDK3	1	0.373
2	CDK3	2	-0.226
3	CDK3	3	0.818
4	CDK3	4	0.0754
5	CPM	1	0.0864
6	CPM	2	-0.061
7	CPM	3	-0.36
8	CPM	4	-0.31
9	MAOB	1	-0.318
10	MAOB	2	-0.192
11	MAOB	3	-0.149
12	MAOB	4	-0.179
13	QARS1	1	-0.24
14	QARS1	2	-0.285
15	QARS1	3	-0.276
16	QARS1	4	-0.306
17	RAB8B	1	-0.477
18	RAB8B	2	-0.268
19	RAB8B	3	-0.597
20	RAB8B	4	-0.0638
21	P2RY10	1	-0.192
22	P2RY10	2	-0.381
23	P2RY10	3	0.0349
24	P2RY10	4	-0.521
25	CNGB3	1	-0.308
26	CNGB3	2	0.368
27	CNGB3	3	0.222
28	CNGB3	4	0.166
29	GPX7	1	-0.166
30	GPX7	2	-0.0703
31	GPX7	3	0.513
32	AGBL3	1	-0.117
33	AGBL3	2	-0.307
34	AGBL3	3	-0.0432
35	KSR1	1	-0.134
36	KSR1	2	-0.238
37	KSR1	3	-0.412
38	KSR1	4	1.57
39	RAG1	1	-0.0937
40	RAG1	2	-0.478
41	RAG1	3	0.0962
42	RAG1	4	-0.000737
43	C17orf75	1	0.098
44	C17orf75	2	-0.107
45	C17orf75	3	-0.493
46	C17orf75	4	0.277
47	GOLGA5	1	-0.0766
48	GOLGA5	2	-0.73
49	GOLGA5	3	-0.232
50	GOLGA5	4	-0.0157
51	MRPS12	1	-0.308
52	MRPS12	2	-0.355
53	MRPS12	3	0.588
54	MRPS12	4	-0.149
55	UBR1	1	-0.14
56	UBR1	2	0.183
57	UBR1	3	-0.0779
58	MAPDA	1	-0.143
59	MAPDA	2	-0.497
60	MAPDA	3	-0.684
61	PEX3	1	-0.155
62	PEX3	2	-0.236
63	PEX3	3	-0.516
64	PEX3	4	-0.454
65	CFAP263	1	0.389
66	CFAP263	2	0.472
67	CFAP263	3	-0.226
68	TRIM60	1	-1.6
69	TRIM60	2	-0.201
70	TRIM60	3	-0.233
71	TRIM60	4	0.572
72	PPEF2	1	0.0889
73	PPEF2	2	-0.205
74	PPEF2	3	-0.134
75	PPEF2	4	-0.156
76	SRSF9	1	-0.154
77	SRSF9	2	0.673
78	SRSF9	3	0.24
79	SRSF9	4	-0.183
80	TRMT61B	1	-0.134
81	TRMT61B	2	-0.086
82	TRMT61B	3	0.00651
83	TRMT61B	4	-0.194
84	MECP2	1	-0.151
85	MECP2	2	-0.593
86	MECP2	3	-0.122
87	MECP2	4	-0.278
